The values that follow come from the supplement of paper PMC12595434, “Development of retinoid nuclear receptor pathway antagonists through targeting aldehyde dehydrogenase 1A3” (iScience, 2025).

The chains behind the UniProt entries cited, without tags or fusion partners. Where a name states a change or a piece, a line headed by the entry shows the natural chain unless it says otherwise.
UniProt Q8NEN9: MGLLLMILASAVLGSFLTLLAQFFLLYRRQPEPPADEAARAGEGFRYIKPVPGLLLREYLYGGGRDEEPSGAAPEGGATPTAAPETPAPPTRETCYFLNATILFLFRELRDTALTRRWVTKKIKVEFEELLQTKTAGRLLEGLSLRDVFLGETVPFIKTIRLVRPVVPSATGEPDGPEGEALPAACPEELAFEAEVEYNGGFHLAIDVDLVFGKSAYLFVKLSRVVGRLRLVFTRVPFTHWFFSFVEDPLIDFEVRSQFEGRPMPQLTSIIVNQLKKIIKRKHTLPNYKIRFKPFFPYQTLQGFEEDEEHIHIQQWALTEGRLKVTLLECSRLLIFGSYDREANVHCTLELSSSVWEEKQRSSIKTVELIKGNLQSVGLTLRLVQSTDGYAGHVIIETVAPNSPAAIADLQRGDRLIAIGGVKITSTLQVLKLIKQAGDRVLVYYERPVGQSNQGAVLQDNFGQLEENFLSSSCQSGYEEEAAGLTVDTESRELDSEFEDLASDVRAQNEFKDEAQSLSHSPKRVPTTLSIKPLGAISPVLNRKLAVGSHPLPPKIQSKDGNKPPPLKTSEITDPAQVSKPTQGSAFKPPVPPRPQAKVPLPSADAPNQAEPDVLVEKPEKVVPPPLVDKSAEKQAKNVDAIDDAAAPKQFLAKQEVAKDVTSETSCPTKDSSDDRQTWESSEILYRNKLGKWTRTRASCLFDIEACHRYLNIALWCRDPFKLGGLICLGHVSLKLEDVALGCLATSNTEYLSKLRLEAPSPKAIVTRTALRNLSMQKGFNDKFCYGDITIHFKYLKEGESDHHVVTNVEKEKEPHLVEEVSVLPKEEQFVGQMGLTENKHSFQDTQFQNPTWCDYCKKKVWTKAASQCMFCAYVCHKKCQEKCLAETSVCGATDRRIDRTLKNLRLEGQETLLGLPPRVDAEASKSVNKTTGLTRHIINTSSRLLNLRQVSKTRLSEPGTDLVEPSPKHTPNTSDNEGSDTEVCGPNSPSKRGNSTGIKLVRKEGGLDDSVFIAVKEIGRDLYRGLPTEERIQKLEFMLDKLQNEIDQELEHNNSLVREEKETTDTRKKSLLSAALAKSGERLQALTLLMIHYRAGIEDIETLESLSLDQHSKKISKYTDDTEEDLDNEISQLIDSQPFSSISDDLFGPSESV
UniProt Q8TBB5: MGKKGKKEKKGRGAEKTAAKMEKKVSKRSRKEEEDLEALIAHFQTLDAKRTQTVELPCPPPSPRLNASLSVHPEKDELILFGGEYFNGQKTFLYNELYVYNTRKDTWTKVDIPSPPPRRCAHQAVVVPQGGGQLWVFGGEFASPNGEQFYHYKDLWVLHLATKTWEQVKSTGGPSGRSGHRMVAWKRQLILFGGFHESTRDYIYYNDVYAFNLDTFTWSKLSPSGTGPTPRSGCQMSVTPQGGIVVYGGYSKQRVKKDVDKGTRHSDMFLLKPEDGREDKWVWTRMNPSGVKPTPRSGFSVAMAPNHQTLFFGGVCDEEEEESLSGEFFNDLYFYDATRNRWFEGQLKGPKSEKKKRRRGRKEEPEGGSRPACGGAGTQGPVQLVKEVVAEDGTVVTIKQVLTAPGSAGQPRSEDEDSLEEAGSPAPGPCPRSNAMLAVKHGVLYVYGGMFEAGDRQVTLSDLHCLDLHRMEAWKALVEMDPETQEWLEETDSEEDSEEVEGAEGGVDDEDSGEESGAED
UniProt Q8TB72: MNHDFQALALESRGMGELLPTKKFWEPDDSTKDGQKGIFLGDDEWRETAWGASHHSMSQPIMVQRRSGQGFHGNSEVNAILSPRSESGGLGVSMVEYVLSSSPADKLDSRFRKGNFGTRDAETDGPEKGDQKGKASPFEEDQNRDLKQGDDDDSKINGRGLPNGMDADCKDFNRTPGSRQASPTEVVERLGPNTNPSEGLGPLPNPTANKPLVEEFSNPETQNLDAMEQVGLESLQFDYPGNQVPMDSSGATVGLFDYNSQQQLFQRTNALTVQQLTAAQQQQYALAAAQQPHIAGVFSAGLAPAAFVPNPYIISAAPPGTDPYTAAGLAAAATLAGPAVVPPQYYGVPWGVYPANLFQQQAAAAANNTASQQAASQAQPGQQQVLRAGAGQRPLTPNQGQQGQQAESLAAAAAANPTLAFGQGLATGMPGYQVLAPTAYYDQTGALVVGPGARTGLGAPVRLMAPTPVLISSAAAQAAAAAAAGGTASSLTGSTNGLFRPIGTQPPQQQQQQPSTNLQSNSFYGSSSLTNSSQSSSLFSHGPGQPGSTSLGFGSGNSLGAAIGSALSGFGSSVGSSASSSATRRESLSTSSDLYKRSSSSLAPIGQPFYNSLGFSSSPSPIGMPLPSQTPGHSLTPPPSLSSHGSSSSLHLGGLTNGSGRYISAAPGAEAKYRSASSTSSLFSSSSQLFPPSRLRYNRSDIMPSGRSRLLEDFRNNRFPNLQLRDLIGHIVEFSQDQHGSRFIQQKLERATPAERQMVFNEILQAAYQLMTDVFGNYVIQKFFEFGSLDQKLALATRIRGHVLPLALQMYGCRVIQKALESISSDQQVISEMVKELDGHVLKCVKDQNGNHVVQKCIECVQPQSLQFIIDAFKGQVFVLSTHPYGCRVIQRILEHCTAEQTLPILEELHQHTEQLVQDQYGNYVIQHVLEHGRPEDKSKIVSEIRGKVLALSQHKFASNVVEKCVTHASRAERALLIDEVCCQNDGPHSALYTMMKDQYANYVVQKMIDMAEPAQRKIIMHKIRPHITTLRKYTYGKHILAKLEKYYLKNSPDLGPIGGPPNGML
UniProt Q8WV41: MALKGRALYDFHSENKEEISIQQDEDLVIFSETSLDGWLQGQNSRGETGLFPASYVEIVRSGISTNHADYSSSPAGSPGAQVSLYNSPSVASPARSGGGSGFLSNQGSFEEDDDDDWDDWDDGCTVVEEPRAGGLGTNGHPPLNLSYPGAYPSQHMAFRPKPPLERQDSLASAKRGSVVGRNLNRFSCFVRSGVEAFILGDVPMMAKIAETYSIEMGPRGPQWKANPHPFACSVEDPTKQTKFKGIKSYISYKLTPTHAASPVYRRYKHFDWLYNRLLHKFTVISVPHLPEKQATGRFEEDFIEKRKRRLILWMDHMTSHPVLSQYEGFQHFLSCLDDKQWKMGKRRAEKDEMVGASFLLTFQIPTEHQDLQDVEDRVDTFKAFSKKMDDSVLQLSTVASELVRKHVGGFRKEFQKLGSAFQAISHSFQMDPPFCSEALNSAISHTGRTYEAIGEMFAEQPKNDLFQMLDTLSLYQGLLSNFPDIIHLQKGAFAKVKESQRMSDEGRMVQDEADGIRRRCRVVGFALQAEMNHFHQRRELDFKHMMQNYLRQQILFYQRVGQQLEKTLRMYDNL
UniProt Q8NC44: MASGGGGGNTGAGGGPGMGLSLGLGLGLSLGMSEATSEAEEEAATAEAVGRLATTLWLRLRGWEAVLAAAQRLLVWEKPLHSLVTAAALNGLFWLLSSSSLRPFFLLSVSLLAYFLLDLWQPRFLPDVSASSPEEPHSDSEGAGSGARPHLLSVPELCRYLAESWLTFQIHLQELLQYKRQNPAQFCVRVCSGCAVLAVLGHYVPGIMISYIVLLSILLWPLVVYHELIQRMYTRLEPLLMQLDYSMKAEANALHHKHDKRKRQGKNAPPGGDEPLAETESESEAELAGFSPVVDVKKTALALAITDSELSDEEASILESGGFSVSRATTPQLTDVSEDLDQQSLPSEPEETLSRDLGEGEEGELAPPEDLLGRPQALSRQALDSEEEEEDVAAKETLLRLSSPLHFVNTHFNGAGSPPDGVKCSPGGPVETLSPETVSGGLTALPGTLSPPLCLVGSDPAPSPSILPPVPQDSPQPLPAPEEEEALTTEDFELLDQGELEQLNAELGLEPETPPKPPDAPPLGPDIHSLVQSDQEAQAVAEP
UniProt Q8TB37: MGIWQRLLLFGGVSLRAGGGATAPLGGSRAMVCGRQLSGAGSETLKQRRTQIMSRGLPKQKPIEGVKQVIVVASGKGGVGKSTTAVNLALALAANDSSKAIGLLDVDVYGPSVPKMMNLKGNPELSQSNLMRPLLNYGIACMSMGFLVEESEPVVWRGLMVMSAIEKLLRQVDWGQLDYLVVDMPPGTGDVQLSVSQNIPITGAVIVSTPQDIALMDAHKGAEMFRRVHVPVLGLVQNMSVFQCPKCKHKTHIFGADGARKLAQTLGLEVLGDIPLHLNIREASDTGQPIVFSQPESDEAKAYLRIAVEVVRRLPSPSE
UniProt Q8NEU8: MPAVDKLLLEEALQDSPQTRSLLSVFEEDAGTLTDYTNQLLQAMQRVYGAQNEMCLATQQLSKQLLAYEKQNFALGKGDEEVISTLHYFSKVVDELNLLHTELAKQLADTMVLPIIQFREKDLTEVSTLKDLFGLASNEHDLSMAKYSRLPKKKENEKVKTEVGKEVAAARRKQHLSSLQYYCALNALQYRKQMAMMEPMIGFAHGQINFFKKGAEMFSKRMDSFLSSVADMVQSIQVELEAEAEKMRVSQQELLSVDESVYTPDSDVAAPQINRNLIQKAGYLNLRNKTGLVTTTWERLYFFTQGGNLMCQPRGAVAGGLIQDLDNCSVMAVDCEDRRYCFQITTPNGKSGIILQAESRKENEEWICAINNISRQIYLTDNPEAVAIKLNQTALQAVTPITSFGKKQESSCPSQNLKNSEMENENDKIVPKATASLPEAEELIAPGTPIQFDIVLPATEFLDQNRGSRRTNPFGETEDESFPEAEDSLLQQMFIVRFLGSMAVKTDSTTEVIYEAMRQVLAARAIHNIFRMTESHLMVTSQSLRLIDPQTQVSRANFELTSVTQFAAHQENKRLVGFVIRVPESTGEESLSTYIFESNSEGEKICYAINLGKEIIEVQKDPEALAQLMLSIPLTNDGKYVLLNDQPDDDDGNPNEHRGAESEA
UniProt Q8NC56: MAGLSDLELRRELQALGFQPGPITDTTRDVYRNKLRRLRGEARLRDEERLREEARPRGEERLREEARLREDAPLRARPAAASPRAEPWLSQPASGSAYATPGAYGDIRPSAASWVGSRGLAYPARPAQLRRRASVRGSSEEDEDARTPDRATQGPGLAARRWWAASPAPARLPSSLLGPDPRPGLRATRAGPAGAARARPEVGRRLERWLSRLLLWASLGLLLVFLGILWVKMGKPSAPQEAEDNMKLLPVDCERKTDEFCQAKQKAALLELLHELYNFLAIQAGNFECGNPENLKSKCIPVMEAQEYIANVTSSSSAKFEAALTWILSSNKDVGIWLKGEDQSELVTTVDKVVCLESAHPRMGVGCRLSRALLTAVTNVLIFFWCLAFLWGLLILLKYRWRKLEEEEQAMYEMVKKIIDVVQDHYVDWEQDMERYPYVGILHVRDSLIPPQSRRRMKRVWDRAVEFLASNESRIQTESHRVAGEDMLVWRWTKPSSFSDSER
UniProt Q8ND56: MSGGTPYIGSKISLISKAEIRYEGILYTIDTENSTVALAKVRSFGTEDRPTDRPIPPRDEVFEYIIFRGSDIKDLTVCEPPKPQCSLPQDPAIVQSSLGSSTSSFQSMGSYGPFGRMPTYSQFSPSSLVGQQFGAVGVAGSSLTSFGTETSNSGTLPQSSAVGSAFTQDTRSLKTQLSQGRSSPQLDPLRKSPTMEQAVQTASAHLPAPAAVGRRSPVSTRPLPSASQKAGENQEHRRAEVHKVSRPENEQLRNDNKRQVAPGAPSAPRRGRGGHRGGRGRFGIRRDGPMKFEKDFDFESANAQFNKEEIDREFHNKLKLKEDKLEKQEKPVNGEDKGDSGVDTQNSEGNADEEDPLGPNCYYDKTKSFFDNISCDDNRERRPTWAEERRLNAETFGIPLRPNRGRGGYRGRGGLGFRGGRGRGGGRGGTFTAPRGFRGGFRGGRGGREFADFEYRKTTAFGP
UniProt Q8TAF3: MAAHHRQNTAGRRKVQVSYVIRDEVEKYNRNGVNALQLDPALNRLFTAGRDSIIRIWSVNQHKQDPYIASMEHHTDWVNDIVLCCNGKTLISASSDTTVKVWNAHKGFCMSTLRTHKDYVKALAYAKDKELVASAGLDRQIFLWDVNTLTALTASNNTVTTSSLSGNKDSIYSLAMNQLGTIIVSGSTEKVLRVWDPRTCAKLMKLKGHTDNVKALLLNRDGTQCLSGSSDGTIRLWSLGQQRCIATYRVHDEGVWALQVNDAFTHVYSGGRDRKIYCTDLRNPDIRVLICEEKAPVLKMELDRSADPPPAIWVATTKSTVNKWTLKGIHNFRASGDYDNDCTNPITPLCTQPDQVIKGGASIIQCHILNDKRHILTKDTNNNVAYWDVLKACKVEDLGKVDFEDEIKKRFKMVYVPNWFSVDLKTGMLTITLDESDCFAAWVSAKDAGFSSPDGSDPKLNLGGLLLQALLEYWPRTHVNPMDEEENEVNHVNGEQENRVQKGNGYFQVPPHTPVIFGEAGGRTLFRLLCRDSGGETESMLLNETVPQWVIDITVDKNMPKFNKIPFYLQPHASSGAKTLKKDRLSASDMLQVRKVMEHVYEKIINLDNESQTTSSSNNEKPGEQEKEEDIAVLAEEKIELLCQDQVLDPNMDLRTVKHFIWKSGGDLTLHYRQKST

This is one part of the list. The data scatter; read single values as rough.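 Many melting curves are irregular; where none melted, Tm was taken as 64 °C.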

Compound in the assay: CCc1cnccc1C(=O)Nc1cc2c(cc1F)NC(=O)CC2
In words: melting temperature shift (DMSO Tm minus MBE1-treated Tm) in cellular thermal proteome profiling; higher = less thermal stabilization by MBE1 (negative = stabilized by MBE1). The following applies: A375.

On to UniProt Q8NI60, for which the melting temperature shift is -0.181 °C (MBE1 concentration: 100 nM) and -0.0183 °C (MBE1 concentration: 1 uM).

PDZD8 (UniProt Q8NEN9): the melting temperature shift (MBE1 concentration: 100 nM) came out at 0.0427 °C and the melting temperature shift (MBE1 concentration: 1 uM) was -0.0855 °C.

As to ZC3H15 (UniProt Q8WU90), the melting temperature shift runs as follows: (MBE1 concentration: 100 nM) -1.56 °C; (MBE1 concentration: 1 uM) 0.268 °C.

Consider GSTCD (UniProt Q8NEC7), for which the melting temperature shift (MBE1 concentration: 100 nM) was 0.653 °C and the melting temperature shift (MBE1 concentration: 1 uM) was 1.14 °C.

In the case of KLHDC4 (UniProt Q8TBB5), the melting temperature shift was -0.616 °C (MBE1 concentration: 100 nM) and -0.88 °C (MBE1 concentration: 1 uM).

As to RNF169 (UniProt Q8NCN4), the melting temperature shift is, setting by setting: (MBE1 concentration: 100 nM) -1.16 °C; (MBE1 concentration: 1 uM) -1.01 °C.

Consider CASC5 (UniProt Q8NG31), for which the melting temperature shift was -4.72 °C (MBE1 concentration: 100 nM) and -0.547 °C (MBE1 concentration: 1 uM).

In the case of PUM2 (UniProt Q8TB72), the melting temperature shift is, setting by setting: (MBE1 concentration: 100 nM) -0.476 °C; (MBE1 concentration: 1 uM) -0.604 °C.

As to TBC1D22A (UniProt Q8WUA7), the melting temperature shift runs as follows: (MBE1 concentration: 100 nM) -1.32 °C; (MBE1 concentration: 1 uM) -1.58 °C.

For SRFBP1 (UniProt Q8NEF9), the melting temperature shift by setting is: (MBE1 concentration: 100 nM) -1.09 °C; (MBE1 concentration: 1 uM) 0.423 °C.

Consider SNX33 (UniProt Q8WV41), for which the melting temperature shift is -0.8 °C (MBE1 concentration: 100 nM) and -0.795 °C (MBE1 concentration: 1 uM).

FAM134A (UniProt Q8NC44): the melting temperature shift (MBE1 concentration: 100 nM) is -0.885 °C and the melting temperature shift (MBE1 concentration: 1 uM) worked out at 1.13 °C.

Turning to NUBPL (UniProt Q8TB37), the melting temperature shift was -0.738 °C (MBE1 concentration: 100 nM) and -0.25 °C (MBE1 concentration: 1 uM).

Take TFB1M (UniProt Q8WVM0): the melting temperature shift runs as follows: (MBE1 concentration: 100 nM) 0.867 °C; (MBE1 concentration: 1 uM) -0.208 °C.

For NEK9 (UniProt Q8TD19), the melting temperature shift reads like this: (MBE1 concentration: 100 nM) 0.434 °C; (MBE1 concentration: 1 uM) 0.0122 °C.

Turning to APPL2 (UniProt Q8NEU8), the melting temperature shift (MBE1 concentration: 100 nM) was -1.17 °C and the melting temperature shift (MBE1 concentration: 1 uM) was -1.01 °C.

For LEMD2 (UniProt Q8NC56), the melting temperature shift was -0.654 °C (MBE1 concentration: 100 nM) and 0.0944 °C (MBE1 concentration: 1 uM).

For the target DIS3L (UniProt Q8TF46), the melting temperature shift was -0.814 °C (MBE1 concentration: 100 nM) and -0.762 °C (MBE1 concentration: 1 uM).

For the target LSM14A (UniProt Q8ND56), the melting temperature shift is, setting by setting: (MBE1 concentration: 100 nM) 0.128 °C; (MBE1 concentration: 1 uM) 0.751 °C.

As for WDR48 (UniProt Q8TAF3), the melting temperature shift was -1.3 °C (MBE1 concentration: 100 nM) and -0.147 °C (MBE1 concentration: 1 uM).

With UniProt Q8TER5, the melting temperature shift is -0.898 °C (MBE1 concentration: 100 nM) and -0.679 °C (MBE1 concentration: 1 uM).

Take UniProt Q8TBF2: the melting temperature shift is, setting by setting: (MBE1 concentration: 100 nM) -2.13 °C; (MBE1 concentration: 1 uM) 0.843 °C.
